# Measured values from publication PMC10573631.
# Amino acid sequences for entries named in this document (tags omitted). Residues count along the entry.
# UniProt P30530, residues 26-894: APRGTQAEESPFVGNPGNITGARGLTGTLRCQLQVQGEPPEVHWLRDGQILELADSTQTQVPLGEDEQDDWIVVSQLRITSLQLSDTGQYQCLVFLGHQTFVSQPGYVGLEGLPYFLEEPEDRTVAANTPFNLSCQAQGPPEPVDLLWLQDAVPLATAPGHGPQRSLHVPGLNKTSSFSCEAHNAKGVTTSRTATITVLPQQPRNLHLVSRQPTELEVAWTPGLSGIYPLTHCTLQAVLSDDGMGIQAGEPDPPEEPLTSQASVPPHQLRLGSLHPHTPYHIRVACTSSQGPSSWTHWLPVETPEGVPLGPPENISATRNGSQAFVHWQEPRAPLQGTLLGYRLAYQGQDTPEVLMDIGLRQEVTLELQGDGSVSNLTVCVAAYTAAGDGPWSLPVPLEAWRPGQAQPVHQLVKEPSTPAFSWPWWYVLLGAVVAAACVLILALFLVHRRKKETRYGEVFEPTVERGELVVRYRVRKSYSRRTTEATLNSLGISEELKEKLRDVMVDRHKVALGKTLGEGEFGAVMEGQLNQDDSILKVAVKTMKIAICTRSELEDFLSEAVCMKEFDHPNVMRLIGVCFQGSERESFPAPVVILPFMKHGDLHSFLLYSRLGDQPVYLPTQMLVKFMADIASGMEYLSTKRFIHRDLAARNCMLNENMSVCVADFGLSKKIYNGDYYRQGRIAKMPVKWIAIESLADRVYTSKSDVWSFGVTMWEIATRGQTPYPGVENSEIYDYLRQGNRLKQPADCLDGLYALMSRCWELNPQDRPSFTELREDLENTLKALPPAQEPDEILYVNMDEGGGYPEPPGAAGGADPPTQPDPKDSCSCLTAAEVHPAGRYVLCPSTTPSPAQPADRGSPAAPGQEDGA
# Substitutions are numbered along the chain they refer to. These are yes or no findings as the source states them, for the method shown. In cells and extracts the contact can be indirect. Some entries that bind do so weakly or less than the wild type. Where a sequence is shown, tags or fusion partners need not be part of it.
# What was measured:
# [1] = target: T1, MIG6-MT1 (Y394F/Y395F)-Flag (human) (UniProt Q9UJM3); assay: co-IP; 293TN cells transfected with AXL and/or EGFR and MIG6-Flag variants, lysates 72 h after transfection; IP with anti-Flag antibody and Protein G Mag Sepharose overnight at 4 C in IP buffer (Tris 50 mM pH 7.4, EDTA 5 mM, NaF 50 mM, Na3VO4 0.1 mM, Triton 1%); Western blot for AXL, EGFR, MIG6
# T1 sequence: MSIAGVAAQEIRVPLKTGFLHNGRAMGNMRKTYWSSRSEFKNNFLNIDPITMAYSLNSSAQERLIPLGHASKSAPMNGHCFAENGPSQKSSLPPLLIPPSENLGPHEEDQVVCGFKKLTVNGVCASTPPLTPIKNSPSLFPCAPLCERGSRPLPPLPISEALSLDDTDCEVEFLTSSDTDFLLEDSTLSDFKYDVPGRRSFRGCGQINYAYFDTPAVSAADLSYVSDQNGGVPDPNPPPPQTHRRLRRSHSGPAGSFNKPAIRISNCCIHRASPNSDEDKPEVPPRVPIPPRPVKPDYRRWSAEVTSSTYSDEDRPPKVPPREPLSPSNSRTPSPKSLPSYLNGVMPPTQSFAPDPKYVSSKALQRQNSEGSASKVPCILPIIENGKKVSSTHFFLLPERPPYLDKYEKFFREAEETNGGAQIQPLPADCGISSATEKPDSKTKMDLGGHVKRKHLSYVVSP
# [2] = target: T2, MIG6-MT2 (Y310F)-Flag (human) (UniProt Q9UJM3); assay: as above
# T2 sequence: T1 sequence with Y310F, F394Y, F395Y
substance,measurement,setting,value
"AXL (pcDNA3-AXL, expressed in 293TN cells) (from UniProt P30530 26-894) (receptor)",binding,[1],binds weakly
same,binding,[2],binds
